From patent US20060257904

Test system: Tau (isoform not stated in figure legend)
Experiment: binding assay
Settings: fibril formation of tau on RQT157 addition; purified recombinant protein; label: 32P internal; variant of RQ11+12

“GGGGUUUCGAACCGGAAUUUGAGGGAUGCCUAGGCAUCCCCCGUGCGUCCCUUUACGAGGGAUUGUCGACUCUAGAGGAUCCGGUACCUGAGGGAUGCCUAGGCAUCCCCGCGCGCCGGUUUCGGACCUCCAGUGCGUGUUACCGCACUGUCGACCC [RQT157]”: binds.

For at least one entry, the source does not settle the construct or the ends of the probe.
